# Drug screen on melanoma cell lines: apoptosis marker

Source: doi:10.1371/journal.pone.0140310, primary screening data, rounded.

Drugs:
BMS-536924, 1 µM: Cc1cc(N2CCOCC2)cc2[nH]c(-c3c(NC[C@@H](O)c4cccc(Cl)c4)cc[nH]c3=O)nc12
OSI-906, 2 µM: C[C@]1(O)C[C@@H](c2nc(-c3ccc4ccc(-c5ccccc5)nc4c3)c3c(N)nccn32)C1
A-769662, 10 µM: N#Cc1c(O)c2c(-c3ccc(-c4ccccc4O)cc3)csc2[nH]c1=O
Src-I1, 10 µM: COc1cc2ncnc(Nc3ccc(Oc4ccccc4)cc3)c2cc1OC
perifosine, 2 µM: CCCCCCCCCCCCCCCCCCOP(=O)([O-])OC1CC[N+](C)(C)CC1
AS-252424, 5 µM: O=C1NC(=O)/C(=C/c2ccc(-c3ccc(F)cc3O)o2)S1
bortezomib, 0.005 µM: CC(C)C[C@H](NC(=O)[C@H](Cc1ccccc1)NC(=O)c1cnccn1)B(O)O
PD173074, 0.5 µM: CCN(CC)CCCCNc1ncc2cc(-c3cc(OC)cc(OC)c3)c(NC(=O)NC(C)(C)C)nc2n1
pazopanib, 2 µM: Cc1ccc(Nc2nccc(N(C)c3ccc4c(C)n(C)nc4c3)n2)cc1S(N)(=O)=O
temozolomide, 10 µM: Cn1nnc2c(C(N)=O)ncn2c1=O

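Human melanoma cells were exposed to a pair of drugs for 72 h in 1,536-well plates and read by automated microscopy after fixing and staining. The read-out is the fraction of cleaved-PARP-positive nuclei, in % of that fraction in the DMSO control; 200 means twice the control level of this apoptosis marker. Every drug was used at one fixed concentration, the higher of two screened. No replicate spread is given; individual values may be noisy. Basal and induced levels differ widely between cell lines.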 An unselected part of the screen is shown.

Drugs | COLO 792
bortezomib + A-769662 | 318
temozolomide + Src-I1 | 132
BMS-536924 + PD173074 | 154
Src-I1 + perifosine | 178
temozolomide + BMS-536924 | 190
OSI-906 + perifosine | 116
temozolomide + AS-252424 | 48.0
OSI-906 + pazopanib | 94.4
AS-252424 + Src-I1 | 299
bortezomib + AS-252424 | 507
AS-252424 + OSI-906 | 97.2
A-769662 + AS-252424 | 69.8
perifosine + AS-252424 | 98.8
pazopanib + Src-I1 | 145
BMS-536924 + Src-I1 | 927
temozolomide + perifosine | 108
PD173074 + bortezomib | 108
PD173074 + Src-I1 | 171
BMS-536924 + pazopanib | 310
OSI-906 + temozolomide | 97.7
pazopanib + A-769662 | 82.8
OSI-906 + A-769662 | 40.9
Src-I1 + bortezomib | 422
pazopanib + temozolomide | 257
pazopanib + bortezomib | 448
A-769662 + temozolomide | 121
A-769662 + Src-I1 | 128
PD173074 + temozolomide | 117
PD173074 + OSI-906 | 96.3
BMS-536924 + AS-252424 | 38.7
BMS-536924 + perifosine | 97.8
PD173074 + A-769662 | 76.1
bortezomib + perifosine | 551

The last 4 entries again:

| Drugs | COLO 792 |
|---|---|
| BMS-536924 + AS-252424 | 38.7 |
| BMS-536924 + perifosine | 97.8 |
| PD173074 + A-769662 | 76.1 |
| bortezomib + perifosine | 551 |